Assay in all cases: co-IP; N. crassa protein extracts (2 mg protein) of QA-induced qa-Myc transformants; 5 uL Myc antibody 4 h at 4°C, Sepharose beads 1 h at 4°C, three washes with extraction buffer; Western blot of the immunoprecipitates
For orientation: In western blotting, separated proteins are transferred to a membrane and probed.

The target in test [1] is Myc-tagged RTF-1 (Neurospora crassa).
The target in test [2] is Myc-RTF-1(3-221aa) (Neurospora crassa).
The target of test [3] is Myc-RTF-1(24-221aa) (Neurospora crassa).
Test [4] addresses Myc-RTF-1^E132K (Neurospora crassa).

These are yes or no findings as the source states them, for the method shown. In cells and extracts the contact can be indirect. For some of these results: Binding calls can cover weak binding; strength is not graded here.

B1: BRE-1 (endogenous) (enzyme, UniProt Q7S304 1-724)
chain: MPVATSPSAVPRPTTVKMEDRKRPAANADDVAPPSKRQAVNGTSKSKDDSNDSREEAWIEEYQKGAIYRQMLEYKRSKVDLEHRLQEAEKSAAFHDDHLRVIKYWLSQLTQELELIVEGSLKSIALKPVDSNWVSSLAFKDSKEFRQHLDDIKKPVILKVESLLNKLASSRGEVKPDVAQLEAQVKSLLANQKELAVKIDRLQAENATLSEQYDTATLKVIKAERKLDRVRSAQVQKLEQQALANSTTRQTTNDENGTSSIAENGDGAEYKTKYKEAIAVANKQKEQIESLLAEIKTLQEENASFKIKKEGISEEDYARTDVFKQFKAQNEDLIKRINNLEAVNKQFREDAEKLRAERTSYRATLEQEAQALTSDLEDQIQQKDQDLTRIRSARDELLAELAMRKASQEQEKTASAHLNELVEAMTDRVTQLESELERLRPTEDVAKAAPTDDLSTLSAEELREKFAKLERDYEAINKELPALEKSYRKAMGIAHKKVMDFTALEERVAILTAEKSKADQKYFAARKDMDIRIAEIRTLRGQNSKSSEIISQLKDVETQHRALITTLEKQIADLKQSNITIVTESKKLESLSSEATRRADSVKSQIENLQNLVKSKDTAGRELKEKAIDKEQEAEKLKVRLDKVSSERDKWKTKCQSNSTEEEEMLRNLVLCSVCRSNFKNTILKGCGHVFCNECVDNRLANRMRKCPSCNKAFDRSDAMPAHL
With B1, the binding result is given as “binds” in test [1], “binds” in test [2], “binds” in test [3] and “no binding” in test [4].

The values are drawn from paper PMC12611138.
